Laboratory results published in article PMC1762330, “‘Fractional Recovery’ Analysis of a Presynaptic Synaptotagmin 1-Anchored Endocytic Protein Complex” (PLoS ONE, 2006).

T1: AP180 (rat (endogenous in rat brain synaptosomes)) (UniProt Q05140)
T1 sequence: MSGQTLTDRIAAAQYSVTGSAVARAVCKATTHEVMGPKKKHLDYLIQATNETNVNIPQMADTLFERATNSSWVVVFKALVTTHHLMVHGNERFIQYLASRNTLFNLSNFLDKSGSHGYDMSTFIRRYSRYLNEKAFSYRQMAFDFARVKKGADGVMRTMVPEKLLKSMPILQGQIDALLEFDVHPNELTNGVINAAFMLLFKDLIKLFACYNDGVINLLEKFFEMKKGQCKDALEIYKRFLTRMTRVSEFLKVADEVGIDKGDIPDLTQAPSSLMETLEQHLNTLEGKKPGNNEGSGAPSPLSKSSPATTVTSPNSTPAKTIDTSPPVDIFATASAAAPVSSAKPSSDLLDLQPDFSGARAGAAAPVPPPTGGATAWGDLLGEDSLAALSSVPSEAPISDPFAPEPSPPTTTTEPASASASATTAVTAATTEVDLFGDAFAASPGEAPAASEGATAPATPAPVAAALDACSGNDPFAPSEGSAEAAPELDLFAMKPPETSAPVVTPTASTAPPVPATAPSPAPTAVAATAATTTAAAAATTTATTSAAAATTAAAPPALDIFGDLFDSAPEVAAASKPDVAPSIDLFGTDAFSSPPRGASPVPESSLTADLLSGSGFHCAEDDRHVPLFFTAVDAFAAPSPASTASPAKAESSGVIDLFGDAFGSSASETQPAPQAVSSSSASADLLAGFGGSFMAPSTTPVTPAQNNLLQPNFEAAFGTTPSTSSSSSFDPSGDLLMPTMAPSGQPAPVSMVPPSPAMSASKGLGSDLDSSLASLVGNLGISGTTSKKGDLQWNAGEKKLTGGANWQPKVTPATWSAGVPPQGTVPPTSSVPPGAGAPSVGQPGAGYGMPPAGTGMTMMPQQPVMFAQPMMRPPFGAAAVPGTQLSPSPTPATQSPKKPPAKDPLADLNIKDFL

B1: AP180 (protein, UniProt Q05140 1-915)
chain: T1 sequence

How the values were obtained:
[1] = target: T1, AP180 (rat (endogenous in rat brain synaptosomes)); assay: co-IP; fractional recovery: immunoprecipitate from rat brain synaptosome lysate on beads split in three aliquots, 15 min on ice in RIPA buffer with 150, 650 or 1150 mM total salt; what stayed on the beads found by Western blot and densitometry; FR = recovery at 1150 mM / recovery at 150 mM, normalised to the FR of the IP-protein
[2] = target: light chain clathrin (rat (endogenous in rat brain synaptosomes)); assay: as above

Molecule | binding [1] | binding [2]
dynamin | binds | 
B1 |  | binds

No constants are given. Whether binding was seen depends on the method and setting. In cells and extracts the contact can be indirect. Binding can be weak; no strength is given.
